Laboratory results published in patent US20250281462A1, “THERAPEUTICALLY EFFECTIVE ORAL ADMINISTRATION OF A 2 ARYLBENZIMIDAZOLE” (Tranquis Therapeutics, Inc., priority 2021, published 2025).
Some results were stated once for a whole list of compounds, not compound by compound.

Assay: Phase 1 single ascending dose (SAD) trial, plasma pharmacokinetics (Part 1)
Conditions: human plasma, Regimen B: 180 mg TQS-168 MC oral suspension, fasted

## CC(C)(C)c1ccc(-c2nc3ccccc3[nH]2)cc1 [TQS-168, 2-(4-tert-butylphenyl)-1H-benzimidazole]
  time of maximum plasma concentration (min-max): 1 to 4 h
